Laboratory results: PubChem BioAssay AID504784 (Drosophila RNAi Screening Center, 2011)
The screen tested about 17,000 reagents; below is an unselected part of those that have a named target and a result. 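Each column is one replicate's B-score; the combined score over replicates was not deposited, so single values may mislead.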 Names joined by + are all predicted targets of the reagent. Not all columns of the deposit are shown.

- Purpose: 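Search for regulators of lipid droplet storage in oleate-fed fly cells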 (primary screen)
- System: Drosophila Kc167 embryonic cells
- Knock-down reagent: long dsRNA against Drosophila genes, about 250 ng dsRNA per well
- Time to read-out: 4 days
- Treatment: cells fed 400 µM oleic acid bound to BSA
- Measurement: 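Cells imaged and segmented; ratio of lipid droplet area to nuclear area, log-transformed, then normalised as a B-score over the screen; higher means more stored lipid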
- Direction: droplet/nuclear area B-score: higher = more stored lipid (overstorage)

Depletion of CG14183 [DRSC10182] came out at: droplet/nuclear area B-score, replicate 1 = -0.269.
With knock-down of Tango11 [DRSC03890], the record shows droplet/nuclear area B-score, replicate 1 = 0.374.
With knock-down of Tango11 [DRSC03892], the record shows droplet/nuclear area B-score, replicate 1 = 1.17.
Knock-down of bip1 [DRSC11327] gave: droplet/nuclear area B-score, replicate 1 = 0.893.
l(2)k05819 [DRSC00826] showed droplet/nuclear area B-score, replicate 1 = -0.465.
Psf1 [DRSC08638] scored droplet/nuclear area B-score, replicate 1 = -0.785.
Sh [DRSC19214] gave droplet/nuclear area B-score, replicate 1 = -4.55.
Sh [DRSC19220] gave droplet/nuclear area B-score, replicate 1 = -0.391.
Sh [DRSC19785] gave droplet/nuclear area B-score, replicate 1 = 0.255.
With knock-down of Sh [DRSC20055], the screen gave droplet/nuclear area B-score, replicate 1 = 0.976.
After knock-down of Sh [DRSC22567], the record shows droplet/nuclear area B-score, replicate 1 = 0.346.
CG14826 [DRSC10197] scored droplet/nuclear area B-score, replicate 1 = -1.66.
CG9164 [DRSC19087] showed droplet/nuclear area B-score, replicate 1 = -0.898.
CG9164 [DRSC20162] showed droplet/nuclear area B-score, replicate 1 = -0.551.
For pio [DRSC04386], the values are droplet/nuclear area B-score, replicate 1 = 1.02.
fwd [DRSC08580] scored droplet/nuclear area B-score, replicate 1 = 0.791.
Depletion of Ras85D [DRSC16814] resulted in: droplet/nuclear area B-score, replicate 1 = -0.172.
CG42662 + CG30080 [DRSC05571] scored droplet/nuclear area B-score, replicate 1 = -2.88.
Knock-down of Top3alpha [DRSC03460] came out at: droplet/nuclear area B-score, replicate 1 = -1.47.
Depletion of DIP-kappa [DRSC01336] resulted in: droplet/nuclear area B-score, replicate 1 = -6.67.
Silencing of DIP-kappa [DRSC01337] gave: droplet/nuclear area B-score, replicate 1 = -0.0814.
For moi + Tgs1 [DRSC16371] the deposit lists droplet/nuclear area B-score, replicate 1 = 0.463.
Against Gr59c [DRSC04185], the values are droplet/nuclear area B-score, replicate 1 = 1.51.

Sorted by “droplet/nuclear area B-score, replicate 1” (low to high): 3 of the entries above
DIP-kappa [DRSC01337]: droplet/nuclear area B-score, replicate 1 = -0.0814
moi + Tgs1 [DRSC16371]: droplet/nuclear area B-score, replicate 1 = 0.463
Gr59c [DRSC04185]: droplet/nuclear area B-score, replicate 1 = 1.51

Continued:
Depletion of RpL34a [DRSC15964] gave: droplet/nuclear area B-score, replicate 1 = 0.143.
nau [DRSC17011] scored droplet/nuclear area B-score, replicate 1 = 1.29.
Depletion of CG43740 [DRSC17994] came out at: droplet/nuclear area B-score, replicate 1 = -0.583.
With knock-down of CG43740 [DRSC23267] the results were droplet/nuclear area B-score, replicate 1 = -1.41.
With knock-down of CG7742 [DRSC03066], the screen gave droplet/nuclear area B-score, replicate 1 = -0.673.
Silencing of eEF1gamma [DRSC16659] resulted in: droplet/nuclear area B-score, replicate 1 = 1.05.
Against CG12851 [DRSC04131] the deposit lists droplet/nuclear area B-score, replicate 1 = 0.721.
Depletion of scrt [DRSC08736] resulted in: droplet/nuclear area B-score, replicate 1 = 1.87.
scrt [DRSC23001] showed droplet/nuclear area B-score, replicate 1 = -0.267.
For CG9973 (retired record) [DRSC08646], the values are droplet/nuclear area B-score, replicate 1 = -0.326.
Against Lint-O [DRSC18468], the entry reads droplet/nuclear area B-score, replicate 1 = -1.06.
Silencing of CG12914 [DRSC06229] came out at: droplet/nuclear area B-score, replicate 1 = -0.00267.
Silencing of N [DRSC18685] resulted in: droplet/nuclear area B-score, replicate 1 = 0.361.
After knock-down of Ilp6 [DRSC17906], the screen gave droplet/nuclear area B-score, replicate 1 = 0.005.
Sr-CII [DRSC07557] scored droplet/nuclear area B-score, replicate 1 = 0.707.
With knock-down of CG8526 [DRSC16438], the record shows droplet/nuclear area B-score, replicate 1 = 0.038.
After knock-down of CtIP [DRSC11785], the screen gave droplet/nuclear area B-score, replicate 1 = -0.0468.
